Assay results: US11407721B2, “CIS-morpholinone and other compounds as MDM2 inhibitors for the treatment of cancer” (AMGEN INC., priority 2013, dated 2022)
“And” between values parts separate entries of the source, which are not always exact repeats. Identical values can stand only once. Structures were worked out from names or drawings and are uncertain.

Amino acid sequences for entries named in this document (tags omitted). Residues count along the entry.
UniProt Q00987, 1-188 limits assumed: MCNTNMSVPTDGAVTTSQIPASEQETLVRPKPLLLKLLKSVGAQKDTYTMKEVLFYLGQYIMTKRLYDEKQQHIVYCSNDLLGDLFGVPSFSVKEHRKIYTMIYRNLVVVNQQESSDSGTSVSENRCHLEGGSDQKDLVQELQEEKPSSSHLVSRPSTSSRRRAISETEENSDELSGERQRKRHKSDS

Target: interaction between HDM2 and p53 (GST-hMDM2 (1-188) / biotinylated-p53 (1-83)) (Homo sapiens (Human), UniProt Q00987)
Assay: HTRF2 Assay (improved HTRF assay)
Type: binding
Conditions: read-out: HTRF2 IC50; 0.2 nM GST-hMDM2 (1-188), 0.5 nM biotinylated-p53 (1-83), 100 mM KF

CCC[C@H](C(=O)O)N1C(=O)[C@H](Cc2ccc(F)cc2)O[C@@](C)(c2ccc(Cl)cc2)[C@H]1c1ccc(Cl)cc1 (relative stereo)
IC50: 17.9 µM

CCC[C@H](C(N)=O)N1C(=O)[C@H](C[C@H](O)CO)O[C@@H](c2ccc(Cl)cc2)[C@H]1c1ccc(Cl)cc1 (relative stereo)
IC50: 1.76 µM

CC1(c2ccc(Cl)cc2)OCC(=O)NC1c1ccc(Cl)cc1 (centres unmarked)
IC50: 100 µM

N#Cc1ccc(C[C@H]2O[C@H](c3ccc(Cl)cc3)[C@H](c3ccc(Cl)cc3)N(C(C(=O)O)C3CC3)C2=O)cc1 (single isomer, unassigned)
IC50: 8.8 µM

CCC[C@@H](C)N1C(=O)[C@@H](CC(=O)O)O[C@H](c2cccc(Cl)c2)[C@@H]1c1ccc(Cl)cc1 (relative stereo)
IC50: 0.677 µM

CCC[C@H](C(=O)NC[C@@H](C)C(=O)O)N1C(=O)[C@H](Cc2ccc(C#N)cc2)O[C@@H](c2ccc(Cl)cc2)[C@H]1c1ccc(Cl)cc1 (relative stereo)
IC50: 0.386 µM

CCCC[C@H](C(=O)O)N1C(=O)[C@H](Cc2ccc(F)cc2)O[C@@H](c2ccc(Cl)cc2)[C@H]1c1ccc(Cl)cc1 (relative stereo)
IC50: 2.13 µM

CCC[C@H](COCC(=O)O)N1C(=O)CO[C@@H](c2ccc(Cl)cc2)[C@H]1c1ccc(Cl)cc1 (relative stereo)
IC50: 6.58 µM

CCC[C@H](C(=O)NC[C@@H](N)C(=O)O)N1C(=O)[C@H](Cc2ccc(C#N)cc2)O[C@@H](c2ccc(Cl)cc2)[C@H]1c1ccc(Cl)cc1
IC50: 0.95 µM

CCC[C@H](C(=O)N1CCC[C@H]1C(=O)OC)N1C(=O)[C@H](Cc2ccc(F)cc2)O[C@@H](c2ccc(Cl)cc2)[C@H]1c1ccc(Cl)cc1 (relative stereo)
IC50: 1.39 µM

CCC[C@H](CO)N1C(=O)CO[C@@H](c2ccc(Cl)cc2)[C@H]1c1ccc(Cl)cc1 (relative stereo)
IC50: 5.12 µM

CCC[C@H](C(=O)NS(=O)(=O)C1CC1)N1C(=O)[C@H](Cc2ccc(F)cc2)O[C@@H](c2ccc(Cl)cc2)[C@H]1c1ccc(Cl)cc1 (relative stereo)
IC50: 1.21 µM

CCCC(C(=O)OCC)N1C(=O)C(CC(=O)O)OC(c2cccc(Cl)c2)C1c1ccc(Cl)cc1 (centres unmarked)
IC50: 2.31 µM

CCC[C@H](C(=O)NC[C@@H](NC(=O)OC(C)(C)C)C(=O)O)N1C(=O)[C@H](Cc2ccc(C#N)cc2)O[C@@H](c2ccc(Cl)cc2)[C@H]1c1ccc(Cl)cc1
IC50: 0.66 µM

CCC[C@H](C(=O)O)N1C(=O)[C@H](Cc2ccc(C#N)cc2F)O[C@@H](c2ccc(Cl)cc2)[C@H]1c1ccc(Cl)cc1 (relative stereo)
IC50: 1.12 µM

CCC[C@H](CO)N1C(=O)[C@H](Cc2ccc(F)cc2)O[C@@H](c2ccc(Cl)cc2)[C@H]1c1ccc(Cl)cc1 (relative stereo)
IC50: 0.644 µM

CCC[C@@H](C(N)=O)N1C(=O)[C@@H](CC(=O)O)O[C@H](c2ccc(Cl)cc2)[C@@H]1c1ccc(Cl)cc1 (relative stereo)
IC50: 7.82 µM

CCC[C@H](C(=O)O)N1C(=O)[C@H](Cc2ccc(S(C)(=O)=O)cc2F)O[C@@H](c2ccc(Cl)cc2)[C@H]1c1ccc(Cl)cc1 (relative stereo)
IC50: 1.82 µM

NC(=O)[C@@H](c1ccc(Cl)cc1)N1C(=O)[C@H](Cc2ccc(F)cc2)O[C@@H](c2ccc(Cl)cc2)[C@H]1c1ccc(Cl)cc1 (relative stereo)
IC50: 5 µM

C=CC[C@@H]1O[C@@H](c2ccc(Cl)cc2)[C@@H](c2ccc(Cl)cc2)N([C@H](CCC)C(N)=O)C1=O (relative stereo)
IC50: 1.94 µM

C=CC[C@@H]1O[C@@H](c2ccc(Cl)cc2)[C@@H](c2ccc(Cl)cc2)N([C@H](CCC)C(=O)O)C1=O (relative stereo)
IC50: 0.997 µM

CCC[C@H](C(=O)O)N1C(=O)[C@H](Cc2ccc(-n3cncn3)cc2)O[C@@H](c2ccc(Cl)cc2)[C@H]1c1ccc(Cl)cc1 (relative stereo)
IC50: 1.15 µM

CCC[C@@H](CC(=O)O)N1C(=O)[C@@H](Cc2ccc(F)cc2)O[C@H](c2cccc(Cl)c2)[C@@H]1c1ccc(Cl)cc1 (relative stereo)
IC50: 16.4 µM

CCC[C@H](C(N)=O)N1C(=O)[C@H](C[C@@H](O)CO)O[C@@H](c2cccc(Cl)c2)[C@H]1c1ccc(Cl)cc1 (relative stereo)
IC50: 0.752 µM

CCC[C@H](C(=O)N1CCC[C@@H]1C(=O)O)N1C(=O)[C@H](Cc2ccc(F)cc2)O[C@@H](c2ccc(Cl)cc2)[C@H]1c1ccc(Cl)cc1
IC50: 1.05 µM

CCC[C@H](C(=O)O)N1C(=O)C(Cc2ccc(F)cc2)O[C@@H](c2cccc(Cl)c2)[C@H]1c1ccc(Cl)cc1 (some centres unmarked)
IC50: 3.92 µM

O=C(O)[C@@H](O)[C@H]1O[C@H](c2cccc(Cl)c2)[C@H](c2ccc(Cl)cc2)N(CC2CC2)C1=O (relative stereo)
IC50: 2.09 µM

CCC[C@H](C(=O)O)N1C(=O)[C@H](Cc2ccc(-n3cccc3)cc2)O[C@@H](c2ccc(Cl)cc2)[C@H]1c1ccc(Cl)cc1 (relative stereo)
IC50: 1.3 µM

CCC[C@@H](CO)N1C(=O)[C@@H](Cc2ccc(F)cc2)O[C@H](c2ccc(Cl)cc2)[C@@H]1c1ccc(Cl)cc1 (relative stereo)
IC50: 2.07 µM

CCC[C@H](C(=O)O)N1C(=O)[C@H](Cc2ccc(-n3cccn3)cc2)O[C@@H](c2ccc(Cl)cc2)[C@H]1c1ccc(Cl)cc1 (relative stereo)
IC50: 1.01 µM

O=C(O)[C@@H](O)[C@@H]1O[C@@H](c2cccc(Cl)c2)[C@@H](c2ccc(Cl)cc2)N(CC2CC2)C1=O (relative stereo)
IC50: 2.59 µM

CCC[C@H](C(=O)O)N1C(=O)[C@H](C[C@@H](O)CO)O[C@@H](c2ccc(Cl)cc2)[C@H]1c1ccc(Cl)cc1 (relative stereo)
IC50: 3.52 µM

CCC[C@H](C(N)=O)N1C(=O)[C@H](Cc2ccc(I)cc2)O[C@@H](c2ccc(Cl)cc2)[C@H]1c1ccc(Cl)cc1 (relative stereo)
IC50: 0.912 µM

O=C1CO[C@@H](c2ccc(Cl)cc2)[C@@H](c2ccc(Cl)cc2)N1[C@@H](CO)c1ccc(Cl)cc1 (relative stereo)
IC50: 5 µM

C=CC[C@H](C(=O)O)N1C(=O)[C@H](Cc2ccc(F)cc2)O[C@@H](c2ccc(Cl)cc2)[C@H]1c1ccc(Cl)cc1 (relative stereo)
IC50: 2.82 µM

CCC[C@H](C(=O)NC[C@H](O)CC(=O)O)N1C(=O)[C@H](Cc2ccc(C#N)cc2)O[C@@H](c2ccc(Cl)cc2)[C@H]1c1ccc(Cl)cc1
IC50: 0.428 µM

CCC[C@H](C(=O)NCc1nnn[nH]1)N1C(=O)[C@H](Cc2ccc(C#N)cc2)O[C@@H](c2ccc(Cl)cc2)[C@H]1c1ccc(Cl)cc1 (relative stereo)
IC50: 0.61 µM

CCC[C@H](C(=O)O)N1C(=O)[C@H](Cc2ccc(OC)cc2)O[C@@H](c2ccc(Cl)cc2)[C@H]1c1ccc(Cl)cc1 (relative stereo)
IC50: 1.34 µM

CCC[C@H](C(=O)N[C@H](C)C(=O)O)N1C(=O)[C@H](Cc2ccc(C#N)cc2)O[C@@H](c2ccc(Cl)cc2)[C@H]1c1ccc(Cl)cc1 (relative stereo)
IC50: 0.44 µM

CCC[C@H](C(N)=O)N1C(=O)[C@H](C[C@@H](O)CO)O[C@@H](c2ccc(Cl)cc2)[C@H]1c1ccc(Cl)cc1 (relative stereo)
IC50: 2.38 µM

CCC[C@H](C(=O)NCC[C@H](O)C(=O)O)N1C(=O)[C@H](Cc2ccc(C#N)cc2)O[C@@H](c2ccc(Cl)cc2)[C@H]1c1ccc(Cl)cc1
IC50: 0.459 µM

CCC[C@H](C(=O)NCCc1nnn[nH]1)N1C(=O)[C@H](Cc2ccc(C#N)cc2)O[C@@H](c2ccc(Cl)cc2)[C@H]1c1ccc(Cl)cc1 (relative stereo)
IC50: 2.03 µM

CCC[C@H](C(=O)N[C@@H](C)C(=O)O)N1C(=O)[C@H](Cc2ccc(C#N)cc2)O[C@@H](c2ccc(Cl)cc2)[C@H]1c1ccc(Cl)cc1 (relative stereo)
IC50: 0.419 µM

CCC[C@H](C(=O)NCCN1CCOCC1)N1C(=O)[C@H](Cc2ccc(F)cc2)O[C@@H](c2ccc(Cl)cc2)[C@H]1c1ccc(Cl)cc1 (relative stereo)
IC50: 0.691 µM

CCC[C@H](C(N)=O)N1C(=O)[C@H](C[C@H](O)CO)O[C@@H](c2cccc(Cl)c2)[C@H]1c1ccc(Cl)cc1 (relative stereo)
IC50: 2.1 µM

O=C1[C@@H](CC(O)CO)O[C@H](c2ccc(Cl)cc2)[C@H](c2ccc(Cl)cc2)N1CC1CC1 (some centres unmarked)
IC50: 9.94 µM

CCC[C@H](C(N)=O)N1C(=O)[C@H](Cc2ccc(F)cc2)O[C@@H](c2ccc(Cl)cc2)[C@H]1c1ccc(Cl)cc1 (relative stereo) [(2R)-2-((2S,3R,6S)-2,3-bis(4-chlorophenyl)-6-(4-fluorobenzyl]
IC50: 0.838 µM and 0.623 µM
